PubChem BioAssay AID504784 | Drosophila RNAi Screening Center, 2011

- Test: 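Fly genes whose silencing alters how much lipid cells keep in droplets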 (primary screen)
- Cell system: Drosophila Kc167 embryonic cells
- Knock-down reagent: long dsRNA against Drosophila genes, about 250 ng dsRNA per well
- Duration: 4 days
- Challenge: cells fed 400 µM oleic acid bound to BSA
- Measured: 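Microscope images give a droplet-to-nucleus area ratio, taken as log and converted to a screen-wide B-score; higher values mean greater lipid storage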
- Reading the numbers: droplet/nuclear area B-score: higher = more stored lipid (overstorage)
The deposit covers about 17,000 reagents; below is a random part of those that have a named target and a result. 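Each column is one replicate's B-score; the combined score over replicates was not deposited, so single values may mislead.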 The numbers tell different reagents against one gene apart. Names joined by + are all predicted targets of the reagent.

no.	gene knocked down	reagent no.	droplet/nuclear area B-score, replicate 1	droplet/nuclear area B-score, replicate 2	droplet/nuclear area B-score, replicate 3
1	MED28 (Mediator complex subunit 28)	1	0.697	-1.73	
2	CG6769	1	0.221	0.917	
3	GNBP-like3 (GNBP-like 3)	1	-0.478	-0.887	
4	nxf2 (nuclear RNA export factor 2)	1	1.38	1.82	-0.769
5	Arl4 (ADP ribosylation factor-like 4)	1	0.467	1.4	
6	Nuf2	1	0.838	1.87	
7	CG7546	1	-0.982	-0.612	
8	CG7546	2	0.455	-0.817	-0.157
9	CG7546	3	-0.954	-0.844	
10	CG1273	1	0.517	5.04	
11	CG32117	1	-0.732	0.695	
12	CG17024 (retired record)	1	0.349	-1.62	
13	PMP34 (Peroxisomal Membrane Protein 34)	1	-1.56	-0.0993	
14	CG31675	1	-0.786	-0.178	
15	I-2 (Inhibitor-2)	1	-1.22	0.744	
16	I-2 (Inhibitor-2)	2	-1.2	0.186	
17	CG1677	1	-0.958	-0.627	
18	CG13962	1	-0.423	-0.141	
19	Mi-2 + Su(Tpl)	1	0.452	0.15	
20	CG30492 (retired record) + M7BP	1	-0.0577	-1.05	
21	CG30492 (retired record) + M7BP	2	-0.631	-1.21	
22	CG30492 (retired record) + M7BP	3	0.0128	0.287	
23	CG30492 (retired record) + M7BP	4	0.232	-0.794	
24	Cyp6v1 (Cytochrome P450 6v1)	1	1.91	1.12	
25	alpha-Est5 (alpha-Esterase-5)	1	-2.73	1.38	
26	CG13540	1	-2.08	-3.65	
27	Nubp1 (NUBP iron-sulfur cluster assembly factor 1)	1	-2.63	-0.487	
28	CG7987	1	0.509	2.41	
29	squ (squash)	1	-0.177	-1.13	
30	CG12213	1	2.35	1.4	-0.932
31	CG12213	2	3.11	0.0175	
32	CG3916	1	-0.0439	0.39	
33	Debcl (Death executioner Bcl-2)	1	0.158	-0.241	
34	Dus3 (Dihydrouridine synthase 3)	1	-0.219	0.32	

A run of entries taken from the entries so far, for reference:
no.	gene knocked down	reagent no.	droplet/nuclear area B-score, replicate 1	droplet/nuclear area B-score, replicate 2	droplet/nuclear area B-score, replicate 3
18	CG13962	1	-0.423	-0.141	
19	Mi-2 + Su(Tpl)	1	0.452	0.15	
20	CG30492 (retired record) + M7BP	1	-0.0577	-1.05	
21	CG30492 (retired record) + M7BP	2	-0.631	-1.21	
